This experiment concerns the target human complement C3d (human) (UniProt P01024). Kind of experiment: ELISA; competitive ELISA: C3d coated (1 ug/well), incubated with Efb prior to addition of eLtaS (9.6-1.2 uM); bound Efb detected with anti-Efb antibodies; both purified. In general terms: An ELISA detects its analyte on a solid surface through an enzyme-linked reagent.

Amino acid sequences for entries named in this document (tags omitted). Residues count along the entry.
UniProt P01024, residues 1002-1303: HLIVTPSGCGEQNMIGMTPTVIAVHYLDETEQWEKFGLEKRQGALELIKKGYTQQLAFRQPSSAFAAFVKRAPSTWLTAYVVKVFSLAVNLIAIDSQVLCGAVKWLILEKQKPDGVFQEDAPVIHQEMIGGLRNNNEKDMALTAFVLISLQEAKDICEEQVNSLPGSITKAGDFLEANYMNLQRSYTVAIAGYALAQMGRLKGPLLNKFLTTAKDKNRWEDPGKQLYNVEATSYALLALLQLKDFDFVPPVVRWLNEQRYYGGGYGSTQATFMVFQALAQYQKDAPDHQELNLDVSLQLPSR
UniProt A6QG59, residues 30-165: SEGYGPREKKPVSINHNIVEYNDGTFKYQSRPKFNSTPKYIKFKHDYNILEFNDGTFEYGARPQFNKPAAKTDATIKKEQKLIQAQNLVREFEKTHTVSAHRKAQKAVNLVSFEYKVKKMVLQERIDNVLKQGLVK

Results are given in words; binding and its absence hold for the method and conditions named. Some results given as binding are weak or reduced against the parent protein; the word gives no strength.

Data on 1 substance can be found in paper PMC4657049.

With “S. aureus Efb (extracellular fibrinogen binding protein) (from UniProt A6QG59 30-165)”, the binding result is recorded as “binds”.
